Structures can show the parent of a compound that is named as a salt. The list shows a part of the results. Most entries show no effect beyond the scatter of the controls.
These molecules were tested on hPSC-derived cortical neurons (WA09) (assay: nucleus area z-score vs screen plate; higher = larger nuclei (more mature)). Settings: 5 µM; treatment: days 7-14 after plating, readout day 21.
`O=C(O)c1cc(/N=N/c2ccc(O)c(C(=O)O)c2)ccc1O` [Olsalazine Sodium] was tested, and the nucleus area z-score was 0.872. `O=C(O)c1ccccc1` [Benzoic Acid] showed a nucleus area z-score of 1.44. Molecule `CNC(=O)c1ccc(N2C(=S)N(c3cnc(C#N)c(C(F)(F)F)c3)C(=O)C23CCC3)cc1F` has a nucleus area z-score of 0.802. For `COC(=O)[C@H](CCSC)NC(=O)c1ccc(NC[C@@H](N)CS)cc1-c1ccccc1`, the nucleus area z-score was -0.519. For `C=C1/C(=C\C=C2/CCC[C@]3(C)[C@@H]([C@H](C)/C=C/[C@H](C)C(C)C)CC[C@@H]23)C[C@@H](O)C[C@@H]1O` [Doxercalciferol], the nucleus area z-score was 0.193. `Cc1cnc(Nc2ccc(OCCN3CCCC3)cc2)nc1Nc1cccc(S(=O)(=O)NC(C)(C)C)c1` gave a nucleus area z-score of -5.12. In the case of `C#Cc1cccc(Nc2ncnc3cc(OCCOC)c(OCCOC)cc23)c1` [Erlotinib], the nucleus area z-score is reported as 0.409. `O=c1[nH]c(C2CCCN2)nc2c1oc1ccc(Cl)cc12` (stereo not given) showed a nucleus area z-score of -0.639. `C[C@H]1C[C@H]2[C@@H]3CCC4=CC(=O)C=C[C@]4(C)[C@H]3C(=O)C[C@]2(C)[C@@]1(O)C(=O)CO` [Meprednisone] showed a nucleus area z-score of 0.0966. With `NS(=O)(=O)c1cc(Cl)c(Cl)c(S(N)(=O)=O)c1` [Dichlorphenamide] the nucleus area z-score was 0.512. Molecule `CCOc1ccccc1OCCN[C@H](C)Cc1ccc(OC)c(S(N)(=O)=O)c1` [Tamsulosin hydrochloride] has a nucleus area z-score of 1.33. Work on `CC(C)NCC(O)COc1ccc(COCCOC(C)C)cc1` (stereo not given) [Bisoprolol fumarate] yielded a nucleus area z-score of 3.2. `CN(C)c1ccc(C(=C2C=CC(=[N+](C)C)C=C2)c2ccc(N(C)C)cc2)cc1` [Crystal Violet] showed a nucleus area z-score of -11. `Cc1csc(-c2nnc(Nc3ccc(Oc4ncccc4-c4ccnc(N)n4)cc3)c3ccccc23)c1` showed a nucleus area z-score of 1.43. Molecule `CN1CC2c3ccccc3Oc3ccc(Cl)cc3C2C1` (stereo not given) [Asenapine] has a nucleus area z-score of 0.541. Molecule `O=c1ccc2ccc(OCCCCN3CCN(c4cccc5sccc45)CC3)cc2[nH]1` [Brexpiprazole] has a nucleus area z-score of 0.515. Molecule `CN1CCC(CNc2ccc3ncc(-c4cccc(OC(F)(F)F)c4)n3n2)CC1` [SGI-1776 free base] has a nucleus area z-score of -7.25. For `C/C(=N\NC(=S)N1CCC1)c1ccccn1`, the nucleus area z-score was -16.1. `C=C(C)[C@@H]1CC[C@]2(C(=O)O)CC[C@]3(C)[C@H](CC[C@@H]4[C@@]5(C)CC[C@H](O)C(C)(C)[C@@H]5CC[C@]43C)[C@@H]12` [Betulinic acid] gave a nucleus area z-score of 0.539. In the case of `CCn1cc(C(=O)O)c(=O)c2cc(F)c(N3CCNCC3)nc21` [Enoxacin], the nucleus area z-score is reported as 1.25. `CN(C)CCOC(C)(c1ccccc1)c1ccccn1` (stereo not given) [Doxylamine Succinate] was tested, and the nucleus area z-score was 0.418. `O=C(NCC(=O)N1CCCC1)Nc1ccc2cnccc2c1` was tested, and the nucleus area z-score was 0.551. `COc1ccc(C(=O)CC(=O)c2ccc(C(C)(C)C)cc2)cc1` [Avobenzone] gave a nucleus area z-score of 0.164. `O=C1[C@H](Cc2ccc(O)cc2)N2C(=O)CCN(C(=O)NCc3ccccc3)[C@H]2CN1Cc1cccc2ccccc12` showed a nucleus area z-score of 0.619. `CC(C)(C(=O)O)c1ccc(C(O)CCCN2CCC(C(O)(c3ccccc3)c3ccccc3)CC2)cc1` (stereo not given) [Fexofenadine HCl] gave a nucleus area z-score of 0.526.

Source: the supplement of paper PMC11348887
